In paper doi:10.1101/602623:
Where a chain is given by its changes, count along the chain named. In names and notes the source's numbering stands. Results are given in words; binding and its absence hold for the method and conditions named. Some binding calls cover weakened binding; strength is not graded here. Sequences can lack the tags named with a protein. One block for each binder: values may come before it.

Molecular target: T1, Cas2 with C-terminal 6X Histidine tag (Escherichia coli type I-E) (Escherichia coli) (UniProt P45956)
T1 sequence: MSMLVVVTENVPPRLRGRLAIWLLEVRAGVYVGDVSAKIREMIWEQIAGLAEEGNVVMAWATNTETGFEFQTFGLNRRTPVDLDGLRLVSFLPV
Assay: co-purification

binding: binds
B1: Cas1 with deletion of the C-terminal tail (ΔC - ΔP279-S305) (domain or fragment, UniProt Q46896 1-278)
chain: MTWLPLNPIPLKDRVSMIFLQYGQIDVIDGAFVLIDKTGIRTHIPVGSVACIMLEPGTRVSHAAVRLAAQVGTLLVWVGEAGVRVYASGQPGGARSDKLLYQAKLALDEDLRLKVVRKMFELRFGEPAPARRSVEQLRGIEGSRVRATYALLAKQYGVTWNGRRYDPKDWEKGDTINQCISAATSCLYGVTEAAILAAGYAPAIGFVHTGKPLSFVYDIADIIKFDTVVPKAFEIARRNPGEPDREVRLACRDIFRSSKTLAKLIPLIEDVLAAGEIQ

binding: binds
B2: Cas1 (wild type, Escherichia coli type I-E) (protein, UniProt Q46896 1-305)
chain: MTWLPLNPIPLKDRVSMIFLQYGQIDVIDGAFVLIDKTGIRTHIPVGSVACIMLEPGTRVSHAAVRLAAQVGTLLVWVGEAGVRVYASGQPGGARSDKLLYQAKLALDEDLRLKVVRKMFELRFGEPAPARRSVEQLRGIEGSRVRATYALLAKQYGVTWNGRRYDPKDWEKGDTINQCISAATSCLYGVTEAAILAAGYAPAIGFVHTGKPLSFVYDIADIIKFDTVVPKAFEIARRNPGEPDREVRLACRDIFRSSKTLAKLIPLIEDVLAAGEIQPPAPPEDAQPVAIPLPVSLGDAGHRSS

binding: binds
B3: Cas1 with alanine substitution at tyrosine 22 (Y22A) (protein, UniProt Q46896 1-305)
chain: B2 chain with Y22A

binding: binds
B4: Cas1 Penta-mutant (5M - Q24H, P202Q, G241D, E276D, L297Q) (protein, UniProt Q46896 1-305)
chain: B2 chain with Q24H, P202Q, G241D, E276D, L297Q
